Reference: the supplement of paper PMC11542785
Where a name gives a salt, the structure may show the parent alone. The list shows a part of the results. Repeats are few or missing, and single values can be far off.

System: Drosophila melanogaster DPAGT1 (Alg7) RNAi eye model
Test: eye size Z-score vs DMSO-treated DPAGT1 model flies; higher = larger eye (suppression of DPAGT1 phenotype)
Conditions: 5 uM

Compound	eye size Z-score	eye size Z-score (female)
Nc1ncn(C2OC(CO)C(O)C2O)c(=O)n1 (stereo not drawn) [Azacytidine-5]	-0.13	
NS(=O)(=O)c1cc(C(=O)NN2C[C@@H]3[C@H]4CC[C@H](C4)[C@@H]3C2)ccc1Cl [Tripamide]	0.39	
CCOC(=O)C1=C(C)NC(C)=C(C(=O)OC)C1c1cccc(Cl)c1Cl (stereo not drawn) [Felodipine]	-0.08	
C[C@H](CCC(=O)O)[C@H]1CC[C@H]2[C@@H]3C(=O)C[C@@H]4CC(=O)CC[C@]4(C)[C@H]3CC(=O)[C@]12C [Dehydrocholic acid]	0.67	
O=C1c2c(O)ccc(O)c2C(=O)c2c(NCCNCCO)ccc(NCCNCCO)c21 [Mitoxantrone dihydrochloride]	0.34	
CCN(CC)CCNC(=O)c1cc(Br)c(N)cc1OC [Bromopride]	-0.7	
CCCCC(=O)N(Cc1ccc(-c2ccccc2-c2nnn[nH]2)cc1)[C@H](C(=O)O)C(C)C [Valsartan]	-0.76	
OC(CCN1CCCCC1)(c1ccccc1)c1ccccc1 [Pridinol methanesulfonate salt]	0.22	
O=C1c2cccc(O)c2C(=O)c2c(O)cccc21 [Danthron]	-0.15	
CCOC(=O)C1=C(C)NC(C)=C(C(=O)OC)C1c1cccc([N+](=O)[O-])c1 (stereo not drawn) [Nitrendipine]	0.26	
CCn1cc(C(=O)O)c(=O)c2cc(F)c(N3CCNCC3)cc21 [Norfloxacin]	-1.79	
O=C(c1ccc(OCCN2CCCCC2)cc1)c1c(-c2ccc(O)cc2)sc2cc(O)ccc12 [Raloxifene hydrochloride]	-2.29	
CC(CN1c2ccccc2Sc2ccccc21)N(C)C (stereo not drawn) [Promethazine hydrochloride]	0	
NS(=O)(=O)c1cc2c(cc1C(F)(F)F)NC(Cc1ccccc1)NS2(=O)=O (stereo not drawn) [Bendroflumethiazide]	0.2	
COc1cc(N)c(Cl)cc1C(=O)NC1CCN(Cc2ccccc2)CC1 [Clebopride maleate]	0.1	
CCc1oc2ccccc2c1C(=O)c1ccc(O)cc1 [Benzarone]	0.62	
Nc1nc(N)nc(-c2cc(Cl)ccc2Cl)n1 [Irsogladine maleate]	0.86	
CCN1CCCC1CNC(=O)c1cc(S(=O)(=O)CC)c(N)cc1OC (stereo not drawn) [Amisulpride]	0.15	
COc1c(O)cc2c(c1O)[C@@H]1O[C@H](CO)[C@@H](O)[C@H](O)[C@H]1OC2=O [Bergenin]	-0.18	
CC(C)[C@H]1CC[C@H](C(=O)N[C@H](Cc2ccccc2)C(=O)O)CC1 [Nateglinide]	0.54	
COc1ccccc1OCCNCC(O)COc1cccc2[nH]c3ccccc3c12 (stereo not drawn) [Carvedilol]	0.12	
CC(C)c1nc(CN(C)C(=O)N[C@H](C(=O)N[C@@H](Cc2ccccc2)C[C@H](O)[C@H](Cc2ccccc2)NC(=O)OCc2cncs2)C(C)C)cs1 [Ritonavir]	-0.76	
O=C(NCC1CCCCN1)c1cc(OCC(F)(F)F)ccc1OCC(F)(F)F (stereo not drawn) [Flecainide acetate]	-0.21	
CC1CCc2cc(F)cc3c(=O)c(C(=O)O)cn1c23 (stereo not drawn) [Flumequine]	1.9	

As entered above.
Value of `Nc1nc(N)nc(-c2cc(Cl)ccc2Cl)n1` [Irsogladine maleate] under eye size Z-score: 0.86
Value of `CCCCC(=O)N(Cc1ccc(-c2ccccc2-c2nnn[nH]2)cc1)[C@H](C(=O)O)C(C)C` [Valsartan] under eye size Z-score: -0.76

The list goes on.

Compound	eye size Z-score	eye size Z-score (female)
CCCCOc1ccc(OCCCN2CCOCC2)cc1 [Pramoxine hydrochloride]	0.02	
COC(=O)Nc1nc2cc(C(=O)c3ccc(F)cc3)ccc2[nH]1 [Flubendazol]	-0.66	
CC(C)(C)NC(=O)[C@@H]1CN(Cc2cccnc2)CCN1C[C@@H](O)C[C@@H](Cc1ccccc1)C(=O)N[C@H]1c2ccccc2C[C@H]1O [Indinavir sulfate]	-0.85	
O=C(O[C@@H]1C[C@@H]2C[C@H]3C[C@H](C1)N2CC3=O)c1c[nH]c2ccccc12 [Dolasetron mesilate]	-0.44	
COc1ccc2cc1Oc1ccc(cc1)C[C@H]1c3c(cc4c(c3Oc3cc5c(cc3OC)CCN(C)[C@@H]5C2)OCO4)CCN1C [Cepharanthine]	1.28	
CC(C)(C)NCC(O)c1ccc(O)c(CO)c1 (stereo not drawn) [Salbutamol]	-0.42	
Cc1c(OCC(F)(F)F)ccnc1C[S+]([O-])c1nc2ccccc2[nH]1 (stereo not drawn) [Lansoprazole]	-0.1	
Cn1c(=O)c2c(ncn2C)n(C)c1=O [Caffeine]	-0.28	
CN[C@@H]1CCc2[nH]c3ccc(C(N)=O)cc3c2C1 [Frovatriptan succinate]		0.29
CN(C)CCCC1(c2ccc(F)cc2)OCc2cc(C#N)ccc21 (stereo not drawn) [Citalopram hydrobromide]	0.55	
CCCC(CCC)C(=O)O [Valproic acid]	0.66	
O=C(O)CNC(=O)C(CS)Cc1ccccc1 (stereo not drawn) [Thiorphan]	-0.32	
Cc1onc(-c2ccccc2)c1C(=O)N[C@@H]1C(=O)N2[C@@H]1SC(C)(C)[C@@H]2C(=O)O [Oxacillin sodium]	1.54	
OCC(O)CN1CCN(c2ccccc2)CC1 (stereo not drawn) [Dropropizine]	-0.13	
CN(C)CCC(c1ccc(Cl)cc1)c1ccccn1 (stereo not drawn) [Chlorpheniramine maleate]	-0.14	
COc1cc(N)c(Cl)cc1C(=O)NC1CCN(CCCOc2ccc(F)cc2)CC1OC (stereo not drawn) [Cisapride]	0.13	
COC1=CC(=O)C[C@@H](C)[C@]12Oc1c(Cl)c(OC)cc(OC)c1C2=O [Griseofulvin]	-0.06	
CC(C)(C)C(O)/C=C/c1ccc2c(c1)OCO2 (stereo not drawn) [Stiripentol]	-0.07	
CCN(CCCc1ccccc1)CCCc1ccccc1 [Alverine citrate salt]	0.76	
O=P(O)(O)C(O)(Cc1cccnc1)P(=O)(O)O [Risedronic acid monohydrate]	-0.57	
CCN(CC)C(=O)N1CCN(C)CC1 [Diethylcarbamazine citrate]	-0.26	
C=CC[N@@+]12CC[C@@]34c5ccccc5N5/C=C6/[C@H]7C[C@H]8[C@@]9(CC[N@@+]8(CC=C)C/C7=C/CO)c7ccccc7N(/C=C(/[C@@H](C[C@@H]31)/C(=C\CO)C2)[C@H]54)[C@@H]69 [Alcuronium chloride]	0.96	
Clc1ccc(COC(Cn2ccnc2)c2ccc(Cl)cc2Cl)cc1 (stereo not drawn) [Econazole nitrate]	-0.2	
CO/N=C1\CN(c2nc3c(cc2F)c(=O)c(C(=O)O)cn3C2CC2)CC1CN (stereo not drawn) [Gemifloxacin mesylate]	-0.94	
